# Reference: patent US6916461B2, “Metal complexes that contain perfluoroalkyl, process for their production and their use in NMR diagnosis” (Schering AG, priority 1996, dated 2005)
# For some assays here: At least one compound was matched to its structure with a doubt left. Some results were stated once for a whole list of compounds, not compound by compound.
# Columns and labels:
# [1] = Lymph node concentration in stimulated guinea pigs after subcutaneous administration; format: in vivo; details: s.c. hind paw
# [2] = Proton relaxivity at 39° C., 0.47 T; format: physicochemical
# [3] = 10 μmol/kg, lymph node removal 90 min
molecule,measurement,setting,value
"CCN(CC(=O)NCC(O)CN1CCN(CC(=O)[O-])CCN(CC(=O)[O-])CCN(CC(=O)[O-])CC1)S(=O)(=O)C(F)(F)C(F)(F)C(F)(F)C(F)(F)C(F)(F)C(F)(F)C(F)(F)C(F)(F)F.[Gd+3] (centres unmarked) [Example 1c, Gadolinium Complex of 10-[2-hydroxy-4-aza-5-oxo-7aza-7-(perfluorooctylsulfonyl)-nonyl]-1,4,7-tris(carboxymethyl)-1,4,7,10-tetraazacyclododecane]",ratio of concentrations popliteal:inguinal:iliac,"[1]; 2.5 μmol/kg, lymph node removal 4 h",10:2.4:3.3
"CCN(CC(=O)NCC(O)CN1CCN(CC(=O)[O-])CCN(CC(=O)[O-])CCN(CC(=O)[O-])CC1)S(=O)(=O)C(F)(F)C(F)(F)C(F)(F)C(F)(F)C(F)(F)C(F)(F)C(F)(F)C(F)(F)F.[Mn+2].[Na+] (centres unmarked) [Example 1e, Manganese complex of 10-[2-hydroxy-4-aza-5-oxo-7-aza-7-(perfluorooctylsulfonyl)-nonyl]-1,4,7-tris(carboxymethyl)-1,4,7,10-tetraazacyclododecane (as sodium salt)]",ratio of concentrations popliteal:inguinal:iliac,[1]; [3],10:4.0:5.2
"O=C([O-])CN1CCN(CC(=O)[O-])CCN(CC(O)CNC(=O)COCCC(F)(F)C(F)(F)C(F)(F)C(F)(F)C(F)(F)C(F)(F)C(F)(F)C(F)(F)F)CCN(CC(=O)[O-])CC1.[Gd+3] (centres unmarked) [Example 2c, Gadolinium complex of 10-[2-hydroxy-4-aza-5-oxo-7-oxa-10,10,11,11,12,12,13,13,14,14,15,15,16,16,17,17,17-heptadecafluoroheptadecyl]-1,4,7-tris(carboxymethyl)-1,4,7,10-tetraazacyclododecane]",ratio of concentrations popliteal:inguinal:iliac,"[1]; 10 μmol/kg, lymph node removal 4 h",10:2.0:3.5
"O=C([O-])CN1CCN(CC(=O)[O-])CCN(CC(O)COCCC(F)(F)C(F)(F)C(F)(F)C(F)(F)C(F)(F)C(F)(F)C(F)(F)C(F)(F)F)CCN(CC(=O)[O-])CC1.[Gd+3] (centres unmarked) [Example 3c, Gadolinium complex of 10-[-2hydroxy-4-oxa-1H,1H,2H,3H,3H,5H,5H,6H,6H-perfluorotetradecyl]-1,4,7-tris(carboxymethyl)-1,4,7,10-tetraazacyclododecane]",ratio of concentrations popliteal:inguinal:iliac,[1]; [3],10:3.1:3.9
"gadolinium(III) complex of 1,4,7,10-tetracarboxymethyl-1,4,7,10-tetraazacyclododecane [Dotarem]",proton relaxivity,[2],3.5 to 4.9 mM⁻¹ s⁻¹
